Source: PubChem BioAssay AID1671195 (Yale University, 2021)
The whole screen tested about 22,000 reagents; below is a random part of them. In the full data, about 1,510 (6.9%) were called active. 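Active includes knockdowns raising or lowering LDL uptake; positive z-scores mean more uptake, negative mean less.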

Aim: 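Genes whose knockdown alters LDL uptake in liver cancer cells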 (primary screen)
System: human Huh7 hepatoma cells
Knock-down reagent: siRNA pool against human genes, 18 nM
Timing: about 2 to 2.5 days of knockdown, then 8 h LDL uptake
Challenge: DiI-labelled LDL at 30 µg/ml for 8 h, in lipoprotein-deficient serum medium
Detection: 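Fluorescent LDL signal imaged in cells, scaled to the plate median, robust z-score for each replicate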
Reading the numbers: robust z-score: higher = more LDL uptake after knockdown
Active means: 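a gene counts as active if at least two replicate z-scores exceed ±2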

Against POU3F1 (POU class 3 homeobox 1) the deposit lists robust z-score, replicate 1 = 0.344; robust z-score, replicate 2 = 0.739; robust z-score, replicate 3 = 1.09; inactive.
After knock-down of GPR25 (G protein-coupled receptor 25) the results were robust z-score, replicate 1 = 0.792; robust z-score, replicate 2 = 0.619; robust z-score, replicate 3 = 1.12; inactive.
Knock-down of PRAF2 (PRA1 domain family member 2) resulted in: robust z-score, replicate 1 = -0.0745; robust z-score, replicate 2 = -0.644; robust z-score, replicate 3 = -0.165; inactive.
For COL23A1 (collagen type XXIII alpha 1 chain), the values are robust z-score, replicate 1 = -0.703; robust z-score, replicate 2 = -0.773; robust z-score, replicate 3 = -0.656; inactive.
With knock-down of CCDC146 (coiled-coil domain containing 146), the screen gave robust z-score, replicate 1 = 0.388; robust z-score, replicate 2 = -1.09; robust z-score, replicate 3 = -1.2; inactive.
With knock-down of RPS5 (ribosomal protein S5), the record shows robust z-score, replicate 1 = -0.0274; robust z-score, replicate 2 = 0.415; robust z-score, replicate 3 = 1.95; inactive.
ACTR3B (actin related protein 3B) gave robust z-score, replicate 1 = 0.144; robust z-score, replicate 2 = -0.839; robust z-score, replicate 3 = -0.456; inactive.
After knock-down of LOC442669 (retired record) the results were robust z-score, replicate 1 = 0.957; robust z-score, replicate 2 = 0.988; robust z-score, replicate 3 = 0.824; inactive.
PHACTR1 (phosphatase and actin regulator 1) scored robust z-score, replicate 1 = -0.584; robust z-score, replicate 2 = -0.647; robust z-score, replicate 3 = -0.359; inactive.
With knock-down of UGT8 (UDP glycosyltransferase 8), the record shows robust z-score, replicate 1 = 0.892; robust z-score, replicate 2 = 0.778; robust z-score, replicate 3 = 0.83; inactive.
Depletion of LCE2A (late cornified envelope 2A) came out at: robust z-score, replicate 1 = 0.654; robust z-score, replicate 2 = 0.924; robust z-score, replicate 3 = 0.68; inactive.
With knock-down of TRABD2A (TraB domain containing 2A), the record shows robust z-score, replicate 1 = -0.549; robust z-score, replicate 2 = -0.847; robust z-score, replicate 3 = 0.0914; inactive.
Silencing of RNLS (renalase, FAD dependent amine oxidase) came out at: robust z-score, replicate 1 = 0.365; robust z-score, replicate 2 = 0.283; robust z-score, replicate 3 = 3.53; inactive.
For CASP14 (caspase 14) the deposit lists robust z-score, replicate 1 = -0.788; robust z-score, replicate 2 = 0.377; robust z-score, replicate 3 = 0.209; inactive.
After knock-down of LOC441706 (retired record), the screen gave robust z-score, replicate 1 = -0.93; robust z-score, replicate 2 = -0.991; robust z-score, replicate 3 = -0.697; inactive.
Depletion of TRIM64FP (tripartite motif containing 64F, pseudogene) gave: robust z-score, replicate 1 = -0.583; robust z-score, replicate 2 = -1.11; robust z-score, replicate 3 = -0.954; inactive.
For ELAC1 (elaC ribonuclease Z 1) the deposit lists robust z-score, replicate 1 = -0.194; robust z-score, replicate 2 = -0.294; robust z-score, replicate 3 = 0.204; inactive.
Silencing of EFL1P1 (elongation factor like GTPase 1 pseudogene 1) came out at: robust z-score, replicate 1 = 0.594; robust z-score, replicate 2 = 0.341; robust z-score, replicate 3 = 0.904; inactive.
With knock-down of LOC401721 (retired record), the screen gave robust z-score, replicate 1 = -0.973; robust z-score, replicate 2 = -0.744; robust z-score, replicate 3 = -0.601; inactive.
Knock-down of SCAMP1 came out at: robust z-score, replicate 1 = 1.64; robust z-score, replicate 2 = 2.62; robust z-score, replicate 3 = 1.86; inactive.
ZNF280A (zinc finger protein 280A) showed robust z-score, replicate 1 = -1.18; robust z-score, replicate 2 = -0.954; robust z-score, replicate 3 = -1.33; inactive.
AKAP7 (A-kinase anchoring protein 7) gave robust z-score, replicate 1 = -0.513; robust z-score, replicate 2 = -1.24; robust z-score, replicate 3 = -1.55; inactive.
Knock-down of TLCD4 (TLC domain containing 4) came out at: robust z-score, replicate 1 = -0.496; robust z-score, replicate 2 = 0.192; robust z-score, replicate 3 = -0.458; inactive.
Against IL1RAP (interleukin 1 receptor accessory protein), the values are robust z-score, replicate 1 = -1.23; robust z-score, replicate 2 = -2.02; robust z-score, replicate 3 = -1.37; inactive.
LOC441371 (retired record) gave robust z-score, replicate 1 = 0.94; robust z-score, replicate 2 = 1.04; robust z-score, replicate 3 = 1.32; inactive.
Knock-down of ARG1 (arginase 1) resulted in: robust z-score, replicate 1 = 0.0809; robust z-score, replicate 2 = 0.187; robust z-score, replicate 3 = 0.399; inactive.
For LOC442220 (retired record), the values are robust z-score, replicate 1 = 0.197; robust z-score, replicate 2 = 0.264; robust z-score, replicate 3 = -0.138; inactive.
KCNA2 (potassium voltage-gated channel subfamily A member 2) showed robust z-score, replicate 1 = -0.207; robust z-score, replicate 2 = -0.15; robust z-score, replicate 3 = -0.525; inactive.
For FADS2 (fatty acid desaturase 2), the entry reads robust z-score, replicate 1 = 2.24; robust z-score, replicate 2 = 1.68; robust z-score, replicate 3 = 1.04; inactive.
MMP14 (matrix metallopeptidase 14) gave robust z-score, replicate 1 = -0.526; robust z-score, replicate 2 = 0.28; robust z-score, replicate 3 = -0.505; inactive.

Entries listed so far whose gene name starts with T or t (3):
TRABD2A (TraB domain containing 2A) — robust z-score, replicate 1 = -0.549; robust z-score, replicate 2 = -0.847; robust z-score, replicate 3 = 0.0914; Outcome = inactive
TRIM64FP (tripartite motif containing 64F, pseudogene) — robust z-score, replicate 1 = -0.583; robust z-score, replicate 2 = -1.11; robust z-score, replicate 3 = -0.954; Outcome = inactive
TLCD4 (TLC domain containing 4) — robust z-score, replicate 1 = -0.496; robust z-score, replicate 2 = 0.192; robust z-score, replicate 3 = -0.458; Outcome = inactive
